From the supplement of paper PMC10849652 come the findings set out here.

Protein sequences, listed by entry. Tags and fused reporters are not part of them. Lines headed by an entry give the natural chain unless they say otherwise; changes in a name come on top.
UniProt Q13480: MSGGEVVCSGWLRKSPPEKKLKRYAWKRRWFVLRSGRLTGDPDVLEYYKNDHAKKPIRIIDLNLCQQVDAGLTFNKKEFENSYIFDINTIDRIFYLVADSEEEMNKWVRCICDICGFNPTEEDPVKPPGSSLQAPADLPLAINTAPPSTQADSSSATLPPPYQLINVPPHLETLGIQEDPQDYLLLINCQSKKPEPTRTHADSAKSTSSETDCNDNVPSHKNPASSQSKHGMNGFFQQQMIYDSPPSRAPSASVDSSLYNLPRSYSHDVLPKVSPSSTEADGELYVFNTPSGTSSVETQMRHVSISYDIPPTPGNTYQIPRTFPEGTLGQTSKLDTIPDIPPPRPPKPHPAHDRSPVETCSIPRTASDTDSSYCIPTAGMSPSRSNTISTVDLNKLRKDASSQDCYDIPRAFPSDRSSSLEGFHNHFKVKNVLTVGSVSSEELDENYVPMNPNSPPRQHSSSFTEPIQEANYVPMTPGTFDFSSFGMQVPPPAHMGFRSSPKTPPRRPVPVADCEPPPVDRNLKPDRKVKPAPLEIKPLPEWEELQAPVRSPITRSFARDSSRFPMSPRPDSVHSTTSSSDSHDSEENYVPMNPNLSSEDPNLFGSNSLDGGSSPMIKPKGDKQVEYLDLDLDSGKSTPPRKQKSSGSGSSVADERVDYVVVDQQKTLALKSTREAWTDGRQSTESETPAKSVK
UniProt O75600: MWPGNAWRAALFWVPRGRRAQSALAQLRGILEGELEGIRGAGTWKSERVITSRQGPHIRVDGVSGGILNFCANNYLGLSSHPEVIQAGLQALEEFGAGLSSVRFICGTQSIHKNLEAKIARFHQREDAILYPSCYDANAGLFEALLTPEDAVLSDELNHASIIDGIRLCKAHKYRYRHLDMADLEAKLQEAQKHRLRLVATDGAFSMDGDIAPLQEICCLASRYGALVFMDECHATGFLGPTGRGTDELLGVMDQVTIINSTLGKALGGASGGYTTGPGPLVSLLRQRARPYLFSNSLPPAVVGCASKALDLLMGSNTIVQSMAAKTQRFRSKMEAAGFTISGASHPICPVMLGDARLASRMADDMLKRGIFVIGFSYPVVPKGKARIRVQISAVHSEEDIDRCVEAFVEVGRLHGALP
UniProt O43716: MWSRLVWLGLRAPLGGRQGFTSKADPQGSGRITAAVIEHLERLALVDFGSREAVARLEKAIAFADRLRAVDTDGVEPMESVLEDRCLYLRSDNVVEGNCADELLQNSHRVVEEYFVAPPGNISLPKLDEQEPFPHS
UniProt P09958, whole entry, looked up: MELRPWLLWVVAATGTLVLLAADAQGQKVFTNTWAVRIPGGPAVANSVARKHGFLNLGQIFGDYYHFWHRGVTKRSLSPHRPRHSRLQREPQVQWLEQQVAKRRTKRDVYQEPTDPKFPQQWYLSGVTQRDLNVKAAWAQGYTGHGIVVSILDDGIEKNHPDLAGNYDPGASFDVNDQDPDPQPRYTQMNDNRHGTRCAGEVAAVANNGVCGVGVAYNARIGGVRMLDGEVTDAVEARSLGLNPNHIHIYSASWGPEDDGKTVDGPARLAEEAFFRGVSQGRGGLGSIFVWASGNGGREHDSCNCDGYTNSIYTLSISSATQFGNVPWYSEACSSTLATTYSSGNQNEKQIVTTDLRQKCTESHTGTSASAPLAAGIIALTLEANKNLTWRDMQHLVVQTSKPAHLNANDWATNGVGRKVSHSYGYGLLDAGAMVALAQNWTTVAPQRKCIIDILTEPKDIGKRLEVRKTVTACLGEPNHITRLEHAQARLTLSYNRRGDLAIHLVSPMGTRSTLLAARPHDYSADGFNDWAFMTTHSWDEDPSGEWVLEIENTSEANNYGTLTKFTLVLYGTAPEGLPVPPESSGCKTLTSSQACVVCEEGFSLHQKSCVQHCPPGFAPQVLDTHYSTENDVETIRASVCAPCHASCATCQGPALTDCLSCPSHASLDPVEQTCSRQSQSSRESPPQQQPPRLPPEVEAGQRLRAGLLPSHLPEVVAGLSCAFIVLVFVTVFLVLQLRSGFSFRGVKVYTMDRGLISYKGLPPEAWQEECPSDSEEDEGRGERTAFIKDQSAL
UniProt Q86YP4: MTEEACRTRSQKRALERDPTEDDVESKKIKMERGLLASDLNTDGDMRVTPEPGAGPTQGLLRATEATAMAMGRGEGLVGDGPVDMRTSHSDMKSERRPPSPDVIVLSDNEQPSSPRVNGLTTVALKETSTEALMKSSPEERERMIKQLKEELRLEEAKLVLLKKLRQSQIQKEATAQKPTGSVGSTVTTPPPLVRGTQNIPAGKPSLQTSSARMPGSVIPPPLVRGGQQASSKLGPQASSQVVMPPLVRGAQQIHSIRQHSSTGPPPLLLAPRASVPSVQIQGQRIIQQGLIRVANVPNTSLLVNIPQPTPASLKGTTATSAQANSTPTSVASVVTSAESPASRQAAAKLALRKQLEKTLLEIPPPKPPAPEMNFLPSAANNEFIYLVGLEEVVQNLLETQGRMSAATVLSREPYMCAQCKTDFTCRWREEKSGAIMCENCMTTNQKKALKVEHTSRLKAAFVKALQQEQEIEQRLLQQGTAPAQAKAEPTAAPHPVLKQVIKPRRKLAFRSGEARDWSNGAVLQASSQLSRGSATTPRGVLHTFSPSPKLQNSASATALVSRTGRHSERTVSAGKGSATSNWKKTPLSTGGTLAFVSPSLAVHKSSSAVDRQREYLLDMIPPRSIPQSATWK
UniProt P51116, whole entry, looked up: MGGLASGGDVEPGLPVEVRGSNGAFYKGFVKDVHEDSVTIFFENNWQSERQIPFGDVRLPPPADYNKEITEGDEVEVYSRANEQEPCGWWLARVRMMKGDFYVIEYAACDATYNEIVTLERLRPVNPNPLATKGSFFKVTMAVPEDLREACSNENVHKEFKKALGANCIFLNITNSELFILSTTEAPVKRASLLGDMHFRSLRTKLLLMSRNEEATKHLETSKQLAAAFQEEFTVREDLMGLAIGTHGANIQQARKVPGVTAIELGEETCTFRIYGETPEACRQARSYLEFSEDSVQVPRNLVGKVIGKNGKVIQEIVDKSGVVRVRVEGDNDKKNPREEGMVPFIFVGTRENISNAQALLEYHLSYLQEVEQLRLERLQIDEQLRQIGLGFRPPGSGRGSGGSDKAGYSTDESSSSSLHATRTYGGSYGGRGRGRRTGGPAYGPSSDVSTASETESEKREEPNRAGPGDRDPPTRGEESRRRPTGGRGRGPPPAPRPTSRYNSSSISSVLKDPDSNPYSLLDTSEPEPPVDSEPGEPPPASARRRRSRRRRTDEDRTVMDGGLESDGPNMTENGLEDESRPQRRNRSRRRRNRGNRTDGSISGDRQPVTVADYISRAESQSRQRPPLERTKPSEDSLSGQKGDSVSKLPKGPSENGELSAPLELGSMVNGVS
UniProt Q8TEQ6: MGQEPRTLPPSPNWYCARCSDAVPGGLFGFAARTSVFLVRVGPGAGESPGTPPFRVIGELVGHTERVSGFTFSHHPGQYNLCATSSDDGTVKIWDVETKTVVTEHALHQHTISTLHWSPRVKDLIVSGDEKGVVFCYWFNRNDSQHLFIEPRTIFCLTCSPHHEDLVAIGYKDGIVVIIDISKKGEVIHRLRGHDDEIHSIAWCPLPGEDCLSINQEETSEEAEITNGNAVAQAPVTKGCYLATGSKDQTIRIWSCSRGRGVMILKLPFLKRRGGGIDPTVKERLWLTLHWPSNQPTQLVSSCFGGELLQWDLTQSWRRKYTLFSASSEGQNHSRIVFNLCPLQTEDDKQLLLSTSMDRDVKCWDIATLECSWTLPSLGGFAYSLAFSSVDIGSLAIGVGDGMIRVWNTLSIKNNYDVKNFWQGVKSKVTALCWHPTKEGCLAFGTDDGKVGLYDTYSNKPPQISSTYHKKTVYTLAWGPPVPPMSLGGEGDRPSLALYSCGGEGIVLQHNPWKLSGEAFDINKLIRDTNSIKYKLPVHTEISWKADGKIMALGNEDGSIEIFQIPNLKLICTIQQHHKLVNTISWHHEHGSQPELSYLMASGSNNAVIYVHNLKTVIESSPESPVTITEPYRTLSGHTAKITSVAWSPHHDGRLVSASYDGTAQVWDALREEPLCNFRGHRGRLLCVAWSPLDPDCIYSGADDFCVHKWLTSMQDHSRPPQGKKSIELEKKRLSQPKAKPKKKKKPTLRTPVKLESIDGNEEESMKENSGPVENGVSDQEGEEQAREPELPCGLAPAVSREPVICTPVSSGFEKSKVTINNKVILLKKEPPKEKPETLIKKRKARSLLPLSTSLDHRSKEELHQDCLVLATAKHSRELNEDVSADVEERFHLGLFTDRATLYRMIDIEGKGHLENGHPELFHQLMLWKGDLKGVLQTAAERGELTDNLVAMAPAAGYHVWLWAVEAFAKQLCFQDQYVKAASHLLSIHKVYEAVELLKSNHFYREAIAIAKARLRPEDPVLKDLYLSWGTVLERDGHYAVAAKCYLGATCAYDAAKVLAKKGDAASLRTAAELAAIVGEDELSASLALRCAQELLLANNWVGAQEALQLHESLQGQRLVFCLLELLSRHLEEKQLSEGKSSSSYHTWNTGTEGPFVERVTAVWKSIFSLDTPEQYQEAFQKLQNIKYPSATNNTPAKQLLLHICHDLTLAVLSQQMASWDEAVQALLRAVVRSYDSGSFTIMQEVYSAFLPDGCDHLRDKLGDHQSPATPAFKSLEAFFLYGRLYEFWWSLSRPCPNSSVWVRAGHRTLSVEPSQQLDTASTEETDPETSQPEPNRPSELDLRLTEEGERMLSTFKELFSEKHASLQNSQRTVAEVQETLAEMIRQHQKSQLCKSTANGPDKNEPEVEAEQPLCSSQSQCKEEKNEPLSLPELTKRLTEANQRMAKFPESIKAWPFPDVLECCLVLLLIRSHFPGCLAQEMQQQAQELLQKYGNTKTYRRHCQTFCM
UniProt Q86SF2: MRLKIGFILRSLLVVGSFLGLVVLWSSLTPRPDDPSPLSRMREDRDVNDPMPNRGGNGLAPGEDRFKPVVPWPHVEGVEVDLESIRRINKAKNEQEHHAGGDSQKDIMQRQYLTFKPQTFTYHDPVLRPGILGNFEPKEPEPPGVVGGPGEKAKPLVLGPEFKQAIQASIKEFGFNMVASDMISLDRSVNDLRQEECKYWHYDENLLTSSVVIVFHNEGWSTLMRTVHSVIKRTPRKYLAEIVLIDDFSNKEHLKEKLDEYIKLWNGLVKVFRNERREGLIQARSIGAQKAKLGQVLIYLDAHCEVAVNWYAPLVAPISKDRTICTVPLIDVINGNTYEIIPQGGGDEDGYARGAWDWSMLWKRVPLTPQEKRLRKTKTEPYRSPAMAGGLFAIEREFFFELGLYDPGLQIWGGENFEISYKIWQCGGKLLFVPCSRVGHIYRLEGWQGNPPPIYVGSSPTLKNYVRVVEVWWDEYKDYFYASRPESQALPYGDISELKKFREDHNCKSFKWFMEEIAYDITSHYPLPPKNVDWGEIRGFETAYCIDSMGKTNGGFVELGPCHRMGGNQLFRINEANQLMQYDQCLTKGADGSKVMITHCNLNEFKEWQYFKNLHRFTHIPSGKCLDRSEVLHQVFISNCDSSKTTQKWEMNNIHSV
UniProt Q8WXI9: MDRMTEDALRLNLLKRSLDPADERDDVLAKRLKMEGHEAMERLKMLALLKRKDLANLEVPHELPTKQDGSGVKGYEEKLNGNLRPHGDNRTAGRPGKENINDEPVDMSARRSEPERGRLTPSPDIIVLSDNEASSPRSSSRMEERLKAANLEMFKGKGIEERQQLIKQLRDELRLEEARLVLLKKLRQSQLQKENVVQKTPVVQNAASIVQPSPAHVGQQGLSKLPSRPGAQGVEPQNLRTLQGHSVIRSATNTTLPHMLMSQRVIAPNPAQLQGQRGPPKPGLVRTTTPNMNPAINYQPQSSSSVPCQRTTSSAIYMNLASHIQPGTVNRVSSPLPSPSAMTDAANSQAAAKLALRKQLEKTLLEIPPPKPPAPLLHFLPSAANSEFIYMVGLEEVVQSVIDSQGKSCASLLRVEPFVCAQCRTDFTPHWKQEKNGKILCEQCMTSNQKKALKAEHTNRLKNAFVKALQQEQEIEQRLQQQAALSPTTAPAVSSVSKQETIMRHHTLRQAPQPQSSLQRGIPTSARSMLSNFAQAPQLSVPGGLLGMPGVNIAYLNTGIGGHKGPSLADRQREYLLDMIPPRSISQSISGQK
UniProt Q13283, whole entry, looked up: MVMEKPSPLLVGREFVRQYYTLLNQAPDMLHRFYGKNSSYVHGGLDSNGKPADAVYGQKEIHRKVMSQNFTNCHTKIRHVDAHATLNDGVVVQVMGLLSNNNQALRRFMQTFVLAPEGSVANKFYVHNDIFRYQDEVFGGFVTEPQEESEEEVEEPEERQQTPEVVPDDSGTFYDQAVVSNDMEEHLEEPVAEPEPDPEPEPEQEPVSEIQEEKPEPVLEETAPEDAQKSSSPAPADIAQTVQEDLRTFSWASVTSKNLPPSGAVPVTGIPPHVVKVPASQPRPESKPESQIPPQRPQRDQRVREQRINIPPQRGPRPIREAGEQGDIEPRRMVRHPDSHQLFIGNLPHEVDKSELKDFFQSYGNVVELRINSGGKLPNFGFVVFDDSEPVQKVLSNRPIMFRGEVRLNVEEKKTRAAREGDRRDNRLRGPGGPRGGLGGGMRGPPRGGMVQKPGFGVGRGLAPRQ

This is one part of the list.

Compound in this assay: O=C1NC(=O)C(c2cnc3ccccn23)=C1c1cn2c3c(cc(F)cc13)CN(C(=O)N1CCCCC1)CC2
Put plainly: log2 fold change, soluble protein after heating vs DMSO (PISA); higher = thermal stabilisation; K562 lysate, 10 uM; active = over 0.2 and 3.5 SD of the protein, either way, in both replicates (recomputed). Put shortly: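 A 30 min treatment with 10 μM compound was applied to crude K562 extract at 1 mg/mL protein in PBS pH 7.4 with 1 mM MgCl2. Heating for 3 min spanned 48°C-58°C, after which aliquots were pooled, adjusted to 0.5% NP-40 at 4°C and spun at 21,000xg for 90 min. TMTpro 16plex LC-MS/MS of the supernatant, with channel sums equalised, gave values recorded as log-two fold change in thermal stability against solvent controls, from duplicates.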
On to GALNS (UniProt P34059), for which the log2 fold change is inactive: -0.003.
With GAPVD1 isoform 6 (UniProt Q14C86), the log2 fold change is inactive: -0.001.
As for GALT (UniProt P07902), the log2 fold change is inactive: 0.034.
The same measure for GEMIN8 (UniProt Q9NWZ8): inactive: 0.039; for FTL (UniProt P02792): inactive: 0.011.
The figure for GAB1 isoform 2 (UniProt Q13480) is inactive: -0.026; for GCAT isoform 2 (UniProt O75600) it is inactive: -0.014; for GFM2 (UniProt Q969S9) it is inactive: 0.065.
The same measure for GALNT6 (UniProt Q8NCL4): inactive: 0.067.
Take GATC (UniProt O43716): the log2 fold change is inactive: -0.086.
The same measure for FURIN (UniProt P09958): inactive: 0.008.
The figure for FPGT (UniProt O14772) is inactive: -0.015; for GATAD2A isoform 3 (UniProt Q86YP4) it is inactive: 0.019; for FXR2 (UniProt P51116) it is inactive: -0.022.
The same measure for GFM1 (UniProt Q96RP9): inactive: 0.015.
Regarding GEMIN2 (UniProt O14893), the log2 fold change is inactive: 0.04.
The same measure for GEMIN5 (UniProt Q8TEQ6): inactive: -0.001.
Turning to GALK1 isoform 2 (UniProt P51570), the log2 fold change was inactive: 0.023.
The same measure for FYB1 isoform 3 (UniProt O15117): inactive: 0.
The figure for GDAP1 (UniProt Q8TB36) is inactive: -0.048; for GALNT7 (UniProt Q86SF2) it is inactive: 0.005.
Consider GATAD2B (UniProt Q8WXI9), for which the log2 fold change was inactive: 0.02.
The figure for G3BP1 (UniProt Q13283) is inactive: -0.013.
